# Measurements reported in the supplement of paper PMC8728848.
# This is one part of the list.
# Key:
# Test in all cases: glycan array binding signal (z-score within array); higher = stronger binding
# Conditions in all cases: glycan notation: IUPAC condensed, linker removed
# [1] = molecular target: Gal(b1-3)GlcNAc(b1-6)GalNAc
# Procedure, shortened: (§1)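 Glycan array data came from 3228 arrays in the Consortium for Functional Glycomics database, and only arrays with an available protein sequence were kept. Glycan names were put into IUPAC-condensed notation, and columns mapping to the same glycan were averaged. The binding signal is a within-array Z-score, averaged across arrays of one protein sequence run at different concentrations or buffers and across linkers. A negative Z-score can be read as non-binding.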
# [2] = molecular target: Gal(b1-3)GlcNAc(b1-6)[Gal(b1-3)]GalNAc
# Procedure, shortened: as §1
# Gal(b1-3)GlcNAc6S = molecular target: Gal(b1-3)GlcNAc6S
# Procedure, shortened: as §1
# [3] = molecular target: Gal(b1-3)[Fuc(a1-4)]GlcNAc
# Procedure, shortened: as §1
# [4] = molecular target: Gal(b1-3)[Fuc(a1-4)]GlcNAc(b1-2)Man
# Procedure, shortened: as §1
# [5] = molecular target: Gal(b1-3)[Fuc(a1-4)]GlcNAc(b1-2)Man(a1-3)[Gal(b1-3)[Fuc(a1-4)]GlcNAc(b1-2)Man(a1-6)]Man(b1-4)GlcNAc(b1-4)[Fuc(a1-6)]GlcNAc
# Procedure, shortened: as §1
# [6] = molecular target: Gal(b1-3)[Fuc(a1-4)]GlcNAc(b1-3)Gal(b1-3)[Fuc(a1-4)]GlcNAc
# Procedure, shortened: as §1
# [7] = molecular target: Gal(b1-3)[Fuc(a1-4)]GlcNAc(b1-3)Gal(b1-4)[Fuc(a1-3)]GlcNAc
# Procedure, shortened: as §1
# [8] = molecular target: Gal(b1-3)[Fuc(a1-4)]GlcNAc(b1-6)GalNAc
# Procedure, shortened: as §1
# [9] = molecular target: Gal(b1-3)[GlcNAc(b1-6)]GalNAc
# Procedure, shortened: as §1
# [10] = molecular target: Gal(b1-3)[Neu5Ac(a2-6)]GalNAc
# Procedure, shortened: as §1
# [11] = molecular target: Gal(b1-3)[Neu5Ac(a2-6)]GlcNAc(b1-4)Gal(b1-4)Glc
# Procedure, shortened: as §1
# [12] = molecular target: Gal(b1-3)[Neu5Ac(b2-6)]GalNAc
# Procedure, shortened: as §1
# Gal(b1-4)Gal = molecular target: Gal(b1-4)Gal
# Procedure, shortened: as §1
# [13] = molecular target: Gal(b1-4)GalNAc(a1-3)[Fuc(a1-2)]Gal(b1-4)GlcNAc
# Procedure, shortened: as §1
# [14] = molecular target: Gal(b1-4)GalNAc(b1-3)[Fuc(a1-2)]Gal(b1-4)GlcNAc
# Procedure, shortened: as §1
# Gal(b1-4)Glc = molecular target: Gal(b1-4)Glc
# Procedure, shortened: as §1
# Gal(b1-4)Glc6S = molecular target: Gal(b1-4)Glc6S
# Procedure, shortened: as §1
# Gal(b1-4)GlcNAc = molecular target: Gal(b1-4)GlcNAc
# Procedure, shortened: as §1
# [15] = molecular target: Gal(b1-4)GlcNAc(a1-6)Gal(b1-4)GlcNAc
# Procedure, shortened: as §1
# Gal(b1-4)GlcNAc(b1-2)Man = molecular target: Gal(b1-4)GlcNAc(b1-2)Man
# Procedure, shortened: as §1
# [16] = molecular target: Gal(b1-4)GlcNAc(b1-2)Man(a1-3)Man(b1-4)GlcNAc(b1-4)GlcNAc
# Procedure, shortened: as §1
# [17] = molecular target: Gal(b1-4)GlcNAc(b1-2)Man(a1-3)[Gal(b1-4)GlcNAc(b1-2)Man(a1-6)]Man(b1-4)GlcNAc(b1-4)GlcNAc
# Procedure, shortened: as §1
# [18] = molecular target: Gal(b1-4)GlcNAc(b1-2)Man(a1-3)[Gal(b1-4)GlcNAc(b1-2)Man(a1-6)]Man(b1-4)GlcNAc(b1-4)[Fuc(a1-6)]GlcNAc
# Procedure, shortened: as §1
# [19] = molecular target: Gal(b1-4)GlcNAc(b1-2)Man(a1-3)[Gal(b1-4)GlcNAc(b1-2)Man(a1-6)][Gal(b1-4)GlcNAc(b1-4)]Man(b1-4)GlcNAc(b1-4)[Fuc(a1-6)]GlcNAc
# Procedure, shortened: as §1
# [20] = molecular target: Gal(b1-4)GlcNAc(b1-2)Man(a1-3)[Gal(b1-4)GlcNAc(b1-2)Man(a1-6)][GlcNAc(b1-4)]Man(b1-4)GlcNAc(b1-4)[Fuc(a1-6)]GlcNAc
# Procedure, shortened: as §1
# [21] = molecular target: Gal(b1-4)GlcNAc(b1-2)Man(a1-3)[GlcNAc(b1-2)Man(a1-6)]Man(b1-4)GlcNAc(b1-4)GlcNAc
# Procedure, shortened: as §1
# [22] = molecular target: Gal(b1-4)GlcNAc(b1-2)Man(a1-3)[GlcNAc(b1-4)][Gal(b1-4)GlcNAc(b1-2)Man(a1-6)]Man(b1-4)GlcNAc(b1-4)GlcNAc
# Procedure, shortened: as §1
# [23] = molecular target: Gal(b1-4)GlcNAc(b1-2)Man(a1-3)[Man(a1-6)]Man(b1-4)GlcNAc(b1-4)GlcNAc
# Procedure, shortened: as §1
# [24] = molecular target: Gal(b1-4)GlcNAc(b1-2)Man(a1-6)Man(b1-4)GlcNAc(b1-4)GlcNAc
# Procedure, shortened: as §1
# [25] = molecular target: Gal(b1-4)GlcNAc(b1-2)Man(a1-6)[GlcNAc(b1-2)Man(a1-3)]Man(b1-4)GlcNAc(b1-4)GlcNAc
# Procedure, shortened: as §1
# [26] = molecular target: Gal(b1-4)GlcNAc(b1-2)Man(a1-6)[Man(a1-3)]Man(b1-4)GlcNAc(b1-4)GlcNAc
# Procedure, shortened: as §1
# [27] = molecular target: Gal(b1-4)GlcNAc(b1-2)[Gal(b1-4)GlcNAc(b1-4)]Man(a1-3)[Gal(b1-4)GlcNAc(b1-2)Man(a1-6)]Man(b1-4)GlcNAc(b1-4)GlcNAc
# Procedure, shortened: as §1
# [28] = molecular target: Gal(b1-4)GlcNAc(b1-2)[Gal(b1-4)GlcNAc(b1-4)]Man(a1-3)[Gal(b1-4)GlcNAc(b1-2)[Gal(b1-4)GlcNAc(b1-6)]Man(a1-6)]Man(b1-4)GlcNAc(b1-4)GlcNAc
# Procedure, shortened: as §1
# [29] = molecular target: Gal(b1-4)GlcNAc(b1-2)[Gal(b1-4)GlcNAc(b1-4)]Man(a1-3)[GlcNAc(b1-4)][Gal(b1-4)GlcNAc(b1-2)Man(a1-6)]Man(b1-4)GlcNAc(b1-4)GlcNAc
# Procedure, shortened: as §1
# [30] = molecular target: Gal(b1-4)GlcNAc(b1-2)[Gal(b1-4)GlcNAc(b1-4)]Man(a1-3)[GlcNAc(b1-4)][Gal(b1-4)GlcNAc(b1-2)[Gal(b1-4)GlcNAc(b1-6)]Man(a1-6)]Man(b1-4)GlcNAc(b1-4)GlcNAc
# Procedure, shortened: as §1
# [31] = molecular target: Gal(b1-4)GlcNAc(b1-2)[Gal(b1-4)GlcNAc(b1-6)]Man(a1-6)[Gal(b1-4)GlcNAc(b1-2)Man(a1-3)]Man(b1-4)GlcNAc(b1-4)GlcNAc
# Procedure, shortened: as §1
# [32] = molecular target: Gal(b1-4)GlcNAc(b1-2)[Gal(b1-4)GlcNAc(b1-6)]Man(a1-6)[Gal(b1-4)GlcNAc(b1-2)Man(a1-3)]Man(b1-4)GlcNAc(b1-4)[Fuc(a1-6)]GlcNAc
# Procedure, shortened: as §1
# [33] = molecular target: Gal(b1-4)GlcNAc(b1-2)[Gal(b1-4)GlcNAc(b1-6)]Man(a1-6)[GlcNAc(b1-4)][Gal(b1-4)GlcNAc(b1-2)Man(a1-3)]Man(b1-4)GlcNAc(b1-4)GlcNAc
# Procedure, shortened: as §1
# [34] = molecular target: Gal(b1-4)GlcNAc(b1-2)[Gal(b1-4)GlcNAc(b1-6)]Man(a1-6)[GlcNAc(b1-4)][Gal(b1-4)GlcNAc(b1-2)[Gal(b1-4)GlcNAc(b1-4)]Man(a1-3)]Man(b1-4)GlcNAc(b1-4)[Fuc(a1-6)]GlcNAc
# Procedure, shortened: as §1
# [35] = molecular target: Gal(b1-4)GlcNAc(b1-3)Gal(b1-3)GalNAc
# Procedure, shortened: as §1
# [36] = molecular target: Gal(b1-4)GlcNAc(b1-3)Gal(b1-3)GlcNAc
# Procedure, shortened: as §1
# [37] = molecular target: Gal(b1-4)GlcNAc(b1-3)Gal(b1-4)Glc
# Procedure, shortened: as §1
# [38] = molecular target: Gal(b1-4)GlcNAc(b1-3)Gal(b1-4)GlcNAc
# Procedure, shortened: as §1
# [39] = molecular target: Gal(b1-4)GlcNAc(b1-3)Gal(b1-4)GlcNAc(b1-2)Man(a1-3)[Gal(b1-4)GlcNAc(b1-3)Gal(b1-4)GlcNAc(b1-2)Man(a1-6)]Man(b1-4)GlcNAc(b1-4)GlcNAc
# Procedure, shortened: as §1
binder,measurement,setting,value
"CBP21 (Serratia marcescens), O83009 (protein) MNKTSRTLLSLGLLSAAMFGVSQQANAHGYVESPASRAYQCKLQLNTQCGSVQYEPQSVEGLKGFPQAGPADGHIASADKSTFFELDQQTPTRWNKLNLKTGPNSFTWKLTARHSTTSWRYFITKPNWDASQPLTRASFDLTPFCQFNDGGAIPAAQVTHQCNIPADRSGSHVILAVWDIADTANAFYQAIDVNLSK",glycan array binding signal (z-score),[1],-0.485
same,glycan array binding signal (z-score),[2],0.586
same,glycan array binding signal (z-score),Gal(b1-3)GlcNAc6S,0.314
same,glycan array binding signal (z-score),[3],0.192
same,glycan array binding signal (z-score),[4],-1.07
same,glycan array binding signal (z-score),[5],-0.088
same,glycan array binding signal (z-score),[6],-0.433
same,glycan array binding signal (z-score),[7],2.27
same,glycan array binding signal (z-score),[8],-0.834
same,glycan array binding signal (z-score),[9],-0.112
same,glycan array binding signal (z-score),[10],0.111
same,glycan array binding signal (z-score),[11],-0.224
same,glycan array binding signal (z-score),[12],-0.85
same,glycan array binding signal (z-score),Gal(b1-4)Gal,-0.004
same,glycan array binding signal (z-score),[13],0.232
same,glycan array binding signal (z-score),[14],0.907
same,glycan array binding signal (z-score),Gal(b1-4)Glc,-0.469
same,glycan array binding signal (z-score),Gal(b1-4)Glc6S,0.359
same,glycan array binding signal (z-score),Gal(b1-4)GlcNAc,-0.181
same,glycan array binding signal (z-score),[15],0.397
same,glycan array binding signal (z-score),Gal(b1-4)GlcNAc(b1-2)Man,0.169
same,glycan array binding signal (z-score),[16],0.348
same,glycan array binding signal (z-score),[17],0.478
same,glycan array binding signal (z-score),[18],1.2
same,glycan array binding signal (z-score),[19],0.898
same,glycan array binding signal (z-score),[20],-0.508
same,glycan array binding signal (z-score),[21],-1.25
same,glycan array binding signal (z-score),[22],-0.579
same,glycan array binding signal (z-score),[23],-1.46
same,glycan array binding signal (z-score),[24],0.178
same,glycan array binding signal (z-score),[25],0.193
same,glycan array binding signal (z-score),[26],-0.287
same,glycan array binding signal (z-score),[27],-0.09
same,glycan array binding signal (z-score),[28],-0.409
same,glycan array binding signal (z-score),[29],-1.29
same,glycan array binding signal (z-score),[30],-1.35
same,glycan array binding signal (z-score),[31],-0.943
same,glycan array binding signal (z-score),[32],0.885
same,glycan array binding signal (z-score),[33],-1.1
same,glycan array binding signal (z-score),[34],-1.38
same,glycan array binding signal (z-score),[35],1.43
same,glycan array binding signal (z-score),[36],0.227
same,glycan array binding signal (z-score),[37],-0.209
same,glycan array binding signal (z-score),[38],0.198
same,glycan array binding signal (z-score),[39],-0.662

# 3 entries from above, tab-delimited.
binder	measurement	setting	value
CBP21 (Serratia marcescens), O83009 (protein) MNKTSRTLLSLGLLSAAMFGVSQQANAHGYVESPASRAYQCKLQLNTQCGSVQYEPQSVEGLKGFPQAGPADGHIASADKSTFFELDQQTPTRWNKLNLKTGPNSFTWKLTARHSTTSWRYFITKPNWDASQPLTRASFDLTPFCQFNDGGAIPAAQVTHQCNIPADRSGSHVILAVWDIADTANAFYQAIDVNLSK	glycan array binding signal (z-score)	[14]	0.907
same	glycan array binding signal (z-score)	[22]	-0.579
same	glycan array binding signal (z-score)	[27]	-0.09
